According to PubChem BioAssay AID504834 (National Center for Advancing Translational Sciences (NCATS), 2011):
The whole screen tested about 320,000 compounds, of which about 22,000 (6.9%) were called active. This list was built around the results that the source calls inconclusive (neither active nor inactive); the mix of calls is not that of the screen. Calls come from the whole dose curve; as a rule, active = well fitted inhibition curve with a large enough effect; inconclusive = small, poorly fitted or top-dose-only effect, or another doubt; inactive = no such curve, though single readings can be large or run the other way. Where the call is inconclusive, the potency comes from a doubtful curve fit.

Test: Primary qHTS for delayed death inhibitors of the malarial parasite plastid, 96 hour incubation
Conditions: P. falciparum luciferase reporter growth; series mostly up to 28.7 µM
Method in brief: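 P. falciparum expressing integrated firefly luciferase, in erythrocytes at 2% hematocrit, 0.05% parasitemia, incubated with compounds 96 h at 37 C, 5% CO2. Growth inhibition read as loss of luminescence; two-generation exposure targets delayed-death apicoplast inhibitors.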
% is set by controls: 0 for no effect and ±100 for the full control effect; potency is the fitted concentration of half-maximal effect.

Question: Which Potency does the source give for `CCc1cc(C(=O)c2ccc(C)cc2)c(NC(=O)CCl)s1` here?
Answer: The Potency was inconclusive: 18.5 µM [inhibitor, single point].

Question: For `CCOC(=O)c1c(C)[nH]c(C)c1S(=O)(=O)N(C)CC(=O)NCc1cccc(Br)c1`, which Potency is on record?
Answer: Its Potency is active: 11.7 µM.

Question: Which Potency does the source give for `Cc1ccc(NC(=O)c2cccs2)cc1NC(=O)c1ccccc1Cl` here?
Answer: Its Potency is “inactive”.

Question: Which Potency does the source give for `NS(=O)(=O)c1ccc(CCNC(=O)Cc2cccs2)cc1` here?
Answer: Its Potency is inconclusive: 18.5 µM [inhibitor, single point].

Question: Which Potency does the source give for `CC(=NCc1cccc(Cl)c1)c1nc(-c2ccco2)oc1O` here?
Answer: The Potency was inconclusive: 18.5 µM [inhibitor, single point].

Question: For `COc1ccc(NC(=O)C2CCN(C(=O)c3ccc(OC)cc3)CC2)cc1`, which Potency is on record?
Answer: Its Potency is inconclusive: 18.5 µM [inhibitor, single point].

Question: Which Potency does the source give for `CCC1NC(C(=O)O)Cc2c1[nH]c1ccccc21` (stereo unspecified) here?
Answer: Its Potency is “inactive”.

Question: Which Potency does the source give for `O=C(CCc1c[nH]c2ccccc12)N1CCN(S(=O)(=O)c2ccccc2)CC1` here?
Answer: Its Potency is inconclusive: 8.28 µM [inhibitor, partial curve, poor fit].

Question: With `CCn1nc(C)c(CNC(=O)c2cc(COc3ccc(C)nc3)on2)c1C` as the molecule, how does the Potency read?
Answer: The Potency was “inactive”.

Question: With `N#Cc1ccc(CSc2nnc(NC(=O)C3CC(=O)N(c4ccc5c(c4)OCCO5)C3)s2)cc1` (stereo unspecified) as the molecule, how does the Potency read?
Answer: The Potency was “inactive”.

Question: For `Cc1nn(-c2nc3ccccc3[nH]2)c(N)c1-c1ccc(Cl)cc1`, which Potency is on record?
Answer: The Potency was inconclusive: 16.5 µM [inhibitor, single point].

Question: With `O=[N+]([O-])c1ccc(SCc2c(F)cccc2Cl)nc1` as the molecule, how does the Potency read?
Answer: The Potency was “inactive”.

Question: With `O=C(NC12CC3CC(CC(C3)C1)C2)c1cncc(Br)c1` as the molecule, how does the Potency read?
Answer: The Potency was inconclusive: 14.7 µM [inhibitor, single point].

Question: For `Nc1ncnc2c1ncn2C1OC(COP(=O)(O)O)C(O)C1O` (stereo unspecified), which Potency is on record?
Answer: The Potency was “inactive”.

Question: Which Potency does the source give for `Cn1c(=O)c2c([nH]c(=S)n2Cc2ccc(Cl)cc2)n(C)c1=O` here?
Answer: The Potency was inconclusive: 18.5 µM [inhibitor, single point].

Question: Which Potency does the source give for `Cc1ccc(Cn2cnc3sc4c(c3c2=O)CCC4)c(C)c1` here?
Answer: Its Potency is active: 1.85 µM.

Question: With `CN(C)c1nnnn1-c1ccc(Oc2ccccc2)cc1` as the molecule, how does the Potency read?
Answer: Its Potency is “inactive”.

Question: With `COc1cccc(NC(=O)C2CCC(CNC(=O)[C@@H]3Cc4ccccc4CN3)CC2)c1` (stereo partly specified) as the molecule, how does the Potency read?
Answer: The Potency was inconclusive: 18.5 µM [inhibitor, single point].

Question: With `Cn1nnnc1SCCNCc1cc(Cl)ccc1OCc1ccccc1` as the molecule, how does the Potency read?
Answer: Its Potency is inconclusive: 18.5 µM [inhibitor, single point].

Question: Which Potency does the source give for `Fc1cccc(-n2c(-c3ccco3)nc3nc4ccccc4nc32)c1` here?
Answer: The Potency was inconclusive: 0.0586 µM [inhibitor, full curve, poor fit].

Question: For `CCOC(=O)c1c(C(C)(C)C)oc2ccc(OCC#N)cc12`, which Potency is on record?
Answer: The Potency was inconclusive: 9.28 µM [inhibitor, single point].

Question: Which Potency does the source give for `CCSc1nsc(NC(=O)Nc2cccc(C(C)=O)c2)n1` here?
Answer: Its Potency is inconclusive: 18.5 µM [inhibitor, single point].

Question: For `COc1ccc(OC)c(NC(=O)CCNS(=O)(=O)c2cccc3nsnc23)c1`, which Potency is on record?
Answer: Its Potency is inconclusive: 4.15 µM [inhibitor, single point].

Question: For `COC(=O)[C@@]1(Cc2ccc(OC)cc2)[C@H]2c3cc(C(=O)N4CCCC4)n(Cc4ccc(C)o4)c3C[C@H]2CN1C(=O)c1ccccc1`, which Potency is on record?
Answer: Its Potency is active: 2.08 µM.

Question: With `Cc1ccc(NCC(=O)N/N=C/c2c[nH]c3ccccc23)cc1` as the molecule, how does the Potency read?
Answer: The Potency was inconclusive: 18.5 µM [inhibitor, single point].

Question: With `CCOC(=O)Cn1c(=O)c2c(nc3n2CCN3Cc2ccccc2)n(C)c1=O` as the molecule, how does the activity change, negative = inhibition read?
Answer: Its activity change, negative = inhibition is inactive: -2.45% [at 5.75 µM].

Question: For `O=C1CN(C(=O)CSc2nnc(Nc3ccccc3)s2)c2ccccc2N1`, which Potency is on record?
Answer: The Potency was inconclusive: 3.7 µM [inhibitor, single point].

Question: With `Cc1n[nH]c(C)c1CCNC(=O)C1CCC(=O)N(CCc2cccc(F)c2)C1` (stereo unspecified) as the molecule, how does the Potency read?
Answer: Its Potency is inconclusive: 18.5 µM [inhibitor, single point].

Question: Which Potency does the source give for `O=C(CSc1nnc(-c2ccccn2)o1)Nc1ccccc1` here?
Answer: The Potency was inconclusive: 18.5 µM [inhibitor, single point].

Question: For `Cc1ccc(C(=O)c2cc([N+](=O)[O-])ccc2N2CCCCC2)cc1C`, which Potency is on record?
Answer: The Potency was inconclusive: 18.5 µM [inhibitor, single point].

Question: With `NS(=O)(=O)c1ccc(CCNC(=O)CCCCCNc2nc(=S)[nH]c3ccccc23)cc1` as the molecule, how does the Potency read?
Answer: Its Potency is active: 2.94 µM.

Question: For `Cc1cc([N+](=O)[O-])nn1CC(=O)NNC(=S)Nc1ccc(Cl)cc1`, which Potency is on record?
Answer: Its Potency is inconclusive: 18.5 µM [inhibitor, single point].

Question: With `COC(=O)CNC(=O)COC(=O)c1ccc(Cl)nc1` as the molecule, how does the Potency read?
Answer: The Potency was “inactive”.

Question: For `CCn1c(=O)c(C(=O)CN(C)Cc2ccc(F)cc2)c(N)n(Cc2ccccc2)c1=O`, which Potency is on record?
Answer: The Potency was inconclusive: 16.5 µM [inhibitor, partial curve].

Question: For `CC(=O)/C(N=Nc1ccc(C(=O)O)cc1)=C(\C)O`, which Potency is on record?
Answer: Its Potency is “inactive”.

Question: For `COc1ccccc1C(O)(c1ccccc1)C(CN1CCOCC1)c1ccccc1` (stereo unspecified), which Potency is on record?
Answer: The Potency was inconclusive: 18.5 µM [inhibitor, single point].

Question: With `COc1ccc(C(=O)NC(=S)N2CCCCC2)cc1` as the molecule, how does the Potency read?
Answer: Its Potency is “inactive”.

Question: For `CCOc1ccccc1C(=O)NC(C)c1ccc(-n2ccnc2)cc1` (stereo unspecified), which Potency is on record?
Answer: Its Potency is active: 8.28 µM.

Question: With `Cc1cccc(NC(=O)c2ccc([N+](=O)[O-])o2)n1` as the molecule, how does the Potency read?
Answer: Its Potency is active: 10.4 µM.

Question: With `Cc1ccc(S(=O)(=O)N2CCCC(C(=O)NCc3ccco3)C2)cc1Cl` (stereo unspecified) as the molecule, how does the Potency read?
Answer: Its Potency is active: 13.1 µM.

Question: Which Potency does the source give for `COc1cc2c(cc1OC)CN(Cc1cc(=O)n3c(-c4ccccc4)csc3n1)CC2` here?
Answer: Its Potency is inconclusive: 0.104 µM [inhibitor, full curve, poor fit].

Question: With `CC(Nc1cc(N2CCCC2)ccc1[N+](=O)[O-])c1ccccc1` (stereo unspecified) as the molecule, how does the Potency read?
Answer: Its Potency is inconclusive: 2.94 µM [inhibitor, full curve, poor fit].

Question: For `COc1ccc(/C=N/Nc2nc(-c3cccc(S(=O)(=O)N4CCCC4)c3)cs2)cc1OC`, which Potency is on record?
Answer: The Potency was active: 11.7 µM.

Question: Which Potency does the source give for `OCCOc1ccc(C2=NCCO2)cc1` here?
Answer: The Potency was “inactive”.

Question: Which Potency does the source give for `Cc1ccc(NC(=O)CN(C)S(=O)(=O)c2ccc3c(c2)n(C)c(=O)c(=O)n3C)c(C)c1` here?
Answer: The Potency was inconclusive: 11.7 µM [inhibitor, partial curve, poor fit].
